Experimental data taken from patent publication US6869965B2, “Antimicrobial quinolone derivatives and use of the same to treat bacterial infections” (Pharmacia & Upjohn Company, priority 2000, dated 2005).
At least one structure is not confirmed: it was looked up by name or label, or the drawing left a doubt.

System: E. faecalis, S. aureus, S. pneumoniae, H. influenzae, M. catarrhalis, E. coli
Experiment: Antibacterial activity, overall statement on Table 1
Format: cell-based
Conditions: summary in words of Table 1

CC(=O)NC[C@H]1CN(c2ccc(N3CCN(c4cc5c(cc4F)c(=O)c(C(=O)O)cn5C4CC4)CC3)c(F)c2)C(=O)O1 [Example 1]
antibacterial activity: potent antibacterial activity

CC(=O)NC[C@H]1CN(c2ccc(N3CCN(c4c(F)cc5c(=O)c(C(=O)O)cn6c5c4OCC6C)CC3)c(F)c2)C(=O)O1 (some centres unmarked) [Example 2]
antibacterial activity: potent antibacterial activity
